Data: PubChem BioAssay AID651550 (National Center for Advancing Translational Sciences (NCATS), 2012)
In all, about 360,000 compounds went through this assay and about 1,100 (0.31%) were called active. Inconclusive means that the source gave no clear call. Such entries were picked first, then a sample of the others. Rule as the data show it: active = activity change below about -80%; inconclusive = mostly about -51% to -80%; inactive = weaker than that.
% is scaled to controls: 0 for no effect and ±100 for the full control effect.

What follows are compounds tested against RAC-alpha serine/threonine-protein kinase (Homo sapiens) (UniProt P31749) (assay: HTS Assay for Inhibitors of Akt Phophorylation: Primary Screen). Details: Neuro2A IGF-stimulated pAkt S473 HTRF, 20 min; at 50 µM, stronger effect = lower value.
Procedure, shortened: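 Single-point screen (50 µM final compound) in Neuro2A cells stimulated 20 min with 6 nM IGF at 37 deg C. After lysis, Ser473-phosphorylated Akt read by HTRF (ex 330 nm, em 615/665 nm) as the 665/615 ratio.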
Cc1ccc(C(C)C)cc1NC(=O)Nc1ccc([N+](=O)[O-])cc1 was tested, and the activity change was “inactive”.
With Cc1csc2c(=O)n3c(nc12)CCCCC3 the activity change was inconclusive: -51.6%.
In the case of O=S(=O)(c1ccc(N2CCOCC2)nc1)N1CCOCC1, the activity change is reported as inconclusive: -71.4%.
For CC(C)(C)n1c(=O)[nH]c2c(c1=O)CCC2, the activity change was active: -114%.
With Cc1ccc(-c2noc(CCC(=O)Nc3ccc(C)cn3)n2)cc1 the activity change was inconclusive: -79.2%.
For Cc1ccc(-c2nc3ncccc3o2)cc1NC(=O)c1cc2ccccc2o1, the activity change was inconclusive: -51.2%.
In the case of CCC(=O)NC(=S)Nc1ccc(-c2nc3ccccc3s2)cc1, the activity change is reported as inconclusive: -56.2%.
CC(=O)c1ccc(NC(=O)CC23CC4CC(C2)CC(n2nnc(C)n2)(C4)C3)cc1 was tested, and the activity change was “inactive”.
In the case of Cc1cc(NC(=O)CSc2nc(-c3ccccc3)c(C#N)c(=O)[nH]2)no1, the activity change is reported as inconclusive: -75.3%.
With COc1cc2oc(=O)c(Br)c(C)c2c(OC)c1OC the activity change was inconclusive: -61.6%.
In the case of CC(=O)OCc1cc2cc(C)ccc2[nH]c1=O, the activity change is reported as active: -102%.
With O=C1C2=C(NC(=S)NC2c2ccc(Cl)cc2)NC(c2ccc(Cl)cc2)N1c1ccc(Cl)cc1 (centres undefined) the activity change was inconclusive: -78.7%.
In the case of O=C(c1ccccc1F)N(Cc1ccc2c(c1)OCO2)Cc1cc2cc3c(cc2n2nnnc12)OCO3, the activity change is reported as inconclusive: -55.5%.
COc1ccc(COC(=O)CCS(=O)(=O)c2ccc(C)cc2)cc1F was tested, and the activity change was “inactive”.
O=C(N/N=C/c1cccs1)C1CC(=O)N(c2ccccc2)C1 (centres undefined) was tested, and the activity change was inconclusive: -62.3%.
In the case of O=C(c1ccc(C(F)(F)F)cc1)N1CCC(=O)N(C(COCc2ccc(C(F)(F)F)cc2)Cc2ccccc2)CC1 (centres undefined), the activity change is reported as “inactive”.
In the case of COC(=O)CSc1nc(N)c(C#N)c(-c2ccco2)c1C#N, the activity change is reported as inconclusive: -61.8%.
For COc1ccc(CCNC(=O)C2CC(=O)N(c3ccc(C)cc3)C2)cc1OC (centres undefined), the activity change was “inactive”.
For COc1ccc(OCC(=O)Nc2cccc(-c3nc4ccccc4[nH]3)c2)cc1, the activity change was inconclusive: -73.1%.
With CCOC(=O)c1[nH]c2c(c1C)C(=O)CC(c1ccc(OC)c(OC)c1)C2 (centres undefined) the activity change was inconclusive: -63.5%.
For Cc1cccc(-c2nc(=S)c3c(n2Cc2ccco2)CCCC3)c1, the activity change was inconclusive: -54.6%.
With Cc1ccc(C(=O)N2CCCCC2)cc1NC1=C(Cl)C(=O)N(Cc2ccccc2)C1=O the activity change was “inactive”.
CCCC(=O)Nc1ccc(Cl)c(NC(=O)C(C)(C)C)c1 was tested, and the activity change was inconclusive: -74.7%.
CC[C@@H](C)[C@@H](C(=O)N1CCN(C(=O)OC(C)(C)C)CC1)n1cc(CCCCNC(=O)OC(C)(C)C)nn1 was tested, and the activity change was “inactive”.
COc1cc(CNn2c(C)n[nH]c2=S)cc(Cl)c1OCc1ccc(F)cc1 was tested, and the activity change was “inactive”.
CCOC(=O)c1nnn(-c2nonc2N)c1-c1ccc(OCC)cc1 was tested, and the activity change was active: -112%.
With CC(=O)c1ccc(N2CCN(S(=O)(=O)c3cccc(S(=O)(=O)N4CCOCC4)c3)CC2)cc1 the activity change was inconclusive: -72.7%.
Cc1cccc(-c2nnn(Cc3nnc(NC(=O)c4ccccc4)s3)n2)c1 was tested, and the activity change was inconclusive: -77.4%.
For CS(=O)(=O)N(Cc1ccccc1)c1ccc(C(=O)NCC2CCCO2)cc1 (centres undefined), the activity change was “inactive”.
In the case of Cc1cc(N2CCOCC2)nc2ccc(Cl)cc12, the activity change is reported as “inactive”.
For O=C(Cn1c(=O)n(CC2CCCO2)c(=O)c2ccccc21)c1ccc(Cl)c(Cl)c1 (centres undefined), the activity change was inconclusive: -79.6%.
O=C(C=Cc1ccc2c(c1)OCO2)OCC=Cc1ccc2c(c1)OCO2 was tested, and the activity change was “inactive”.
For Cc1ccc(-c2nnc(N3CCN(C(=O)CN4C(=O)c5ccccc5C4=O)CC3)c3ccccc23)cc1, the activity change was inconclusive: -75.2%.
COc1cccc(C(=O)Nc2nnc(-c3cccs3)s2)c1 was tested, and the activity change was inconclusive: -58.8%.
For O=c1c2[nH]c3ccc(F)cc3c2ncn1C1CCCCC1, the activity change was inconclusive: -50.9%.
O=C(O)CCN1C(=O)/C(=C\c2ccncc2)SC1=S was tested, and the activity change was “inactive”.
With Cc1ccc(N(CC(=O)Nc2c(C)n(C)n(-c3ccccc3)c2=O)S(C)(=O)=O)cc1C the activity change was active: -109%.
For N#CC1=C(N)OC2=C(C(=O)CCC2)C1C1C=CCCC1 (centres undefined), the activity change was active: -110%.
COc1ccnc(CSC(N)=Nc2ccc(F)cc2)c1 was tested, and the activity change was inconclusive: -57.5%.
For COc1ccc(-c2nnc(SCC(=O)NC(=O)NCc3ccccc3)o2)cc1, the activity change was inconclusive: -72.8%.
For CNc1nn(-c2cccc(Cl)c2)nc1N, the activity change was “inactive”.
With Cc1cc(Cl)n2c(nc3ccccc32)c1C#N the activity change was “inactive”.
With Cc1ccc2c(c1)N(CCCC(=O)NCCC1=CCCCC1)C(=O)CO2 the activity change was inconclusive: -56.2%.
For O=C(O)c1cccc(Nc2nc(N3CCOCC3)nc(N3CCOCC3)n2)c1, the activity change was inconclusive: -77.7%.
For CCN(CC)CCCn1c(=S)[nH]c2cc(Cl)ccc2c1=O, the activity change was inconclusive: -54.7%.
For O=C(CSc1nnc(Cc2ccccc2)n1-c1cccc(Cl)c1)N1CCOCC1, the activity change was active: -132%.
For Nc1c(SCCC(=O)O)ccc2c1C(=O)c1ccccc1C2=O, the activity change was “inactive”.
In the case of COC(=O)c1ccc(C(=O)OC)c(NC2=NS(=O)(=O)c3ccccc32)c1, the activity change is reported as inconclusive: -60.6%.
In the case of CCN(CC)CCCN(C(=O)Cn1nnc(-c2ccc(OC)c(OC)c2)n1)C(C(=O)NC(C)(C)C)c1ccc(F)cc1 (centres undefined), the activity change is reported as “inactive”.
In the case of CCCCOC(=O)CCc1nc2ccccc2[nH]c1=O, the activity change is reported as inactive: -23.4%.
With CCOC(=O)C1=C(C)N=C2SC(C)C(=O)N2C1c1ccc(OC(C)=O)c(OC)c1 (centres undefined) the activity change was active: -104%.
For CCNC(=O)/C(C#N)=C/c1c(N2CCOCC2)nc2ccccn2c1=O, the activity change was “inactive”.
COc1cc2c(cc1[N+](=O)[O-])-c1ccc([N+](=O)[O-])cc1C2=NNC(N)=S was tested, and the activity change was “inactive”.
COc1ccc2c(c1)[nH]c(=O)c1sc3ccccc3c12 was tested, and the activity change was inconclusive: -50.7%.
For COc1cc(OC)c(C2Nc3cccc4cccc(c34)N2)c(OC)c1, the activity change was “inactive”.
In the case of COc1ccc(C2CC3(CC(C)(C)NC(=S)N3)Oc3cc(O)cc(C)c32)cc1OC (centres undefined), the activity change is reported as “inactive”.
With CC1=NN(c2ccccc2)C(=O)/C1=C\N1CC(C)OC(C)C1 (centres undefined) the activity change was inconclusive: -59.2%.
For O=C(Nc1nc(-c2cc(F)ccc2F)cs1)c1cccc(N2C(=O)CCC2=O)c1, the activity change was “inactive”.
In the case of COc1ccc2[nH]c(C(=O)O)c(NS(=O)(=O)c3ccc(Cl)s3)c2c1, the activity change is reported as active: -88%.
